PubChem BioAssay AID1259254, NCATS, 2017
Aim: 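Gene knock-downs that lead to re-replication, shown by excess G2 DNA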 (primary screen). Cells: human HCT116 colorectal cancer cells. Reagent: single siRNA against human genes. Time to read-out: 3 days. Detection: 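Imaged Hoechst DNA stain sorts each cell into a cycle phase by DNA amount; per plate, G2 fraction set to 0% for non-targeting and 100% for GMNN siRNA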. Scale: G2 robust z-score: higher = more G2 cells, more excess DNA replication. Rule for the call: 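Active siRNAs have a G2 robust z of 5 or more median absolute deviations over the median, which in these data means about 38% or higher of GMNN control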.
This is a random part of about 59,000 deposited reagents. Of all reagents, about 1,550 (2.6%) were called active. 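G2 share is only a proxy for re-replication; each gene was hit by three separate siRNAs, and active genes were retested.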 Further read-outs or replicates are left out here. The record does not give: the amount of reagent.

Gene | PubChem SID | G2 robust z-score | outcome
H2AX (H2A.X variant histone) | SID160733050 | -1.02 | inactive
H2AX (H2A.X variant histone) | SID160774807 | -0.871 | inactive
H2AX (H2A.X variant histone) | SID160774808 | -0.9 | inactive
HSPE1 (heat shock protein family E (Hsp10) member 1) | SID160775417 | -0.131 | inactive
HSPE1 (heat shock protein family E (Hsp10) member 1) | SID160775418 | -0.957 | inactive
HSPE1 (heat shock protein family E (Hsp10) member 1) | SID160775419 | 1.46 | inactive
SPAM1 (sperm adhesion molecule 1) | SID160717248 | 1.7 | inactive
SPAM1 (sperm adhesion molecule 1) | SID160717249 | -0.735 | inactive
SPAM1 (sperm adhesion molecule 1) | SID160717250 | 0.8 | inactive
IRF2BP2 (interferon regulatory factor 2 binding protein 2) | SID160765220 | -0.849 | inactive
IRF2BP2 (interferon regulatory factor 2 binding protein 2) | SID160765221 | 1.27 | inactive
IRF2BP2 (interferon regulatory factor 2 binding protein 2) | SID160765222 | 1.24 | inactive
WDR82P1 (WD repeat domain 82 pseudogene 1) | SID160771854 | -0.394 | inactive
WDR82P1 (WD repeat domain 82 pseudogene 1) | SID160771855 | -0.827 | inactive
WDR82P1 (WD repeat domain 82 pseudogene 1) | SID160771856 | -0.921 | inactive

3 entries from above, sorted by “G2 robust z-score”, low to high.
Gene | PubChem SID | G2 robust z-score | outcome
SPAM1 (sperm adhesion molecule 1) | SID160717249 | -0.735 | inactive
HSPE1 (heat shock protein family E (Hsp10) member 1) | SID160775419 | 1.46 | inactive
SPAM1 (sperm adhesion molecule 1) | SID160717248 | 1.7 | inactive

More reagents follow.
Gene | PubChem SID | G2 robust z-score | outcome
CDH11 (cadherin 11) | SID160740639 | 0.496 | inactive
CDH11 (cadherin 11) | SID160740650 | 0.818 | inactive
CDH11 (cadherin 11) | SID160740663 | 0.52 | inactive
NR1H2 (nuclear receptor subfamily 1 group H member 2) | SID160718636 | 0.851 | inactive
NR1H2 (nuclear receptor subfamily 1 group H member 2) | SID160718637 | -0.304 | inactive
NR1H2 (nuclear receptor subfamily 1 group H member 2) | SID160718638 | -0.293 | inactive
ADI1 (acireductone dioxygenase 1) | SID160743362 | -0.668 | inactive
ADI1 (acireductone dioxygenase 1) | SID160743364 | -0.082 | inactive
ADI1 (acireductone dioxygenase 1) | SID160743365 | 1.84 | inactive
RBM38 (RNA binding motif protein 38) | SID160743781 | -0.657 | inactive
RBM38 (RNA binding motif protein 38) | SID160743782 | -0.286 | inactive
RBM38 (RNA binding motif protein 38) | SID160743783 | 1.34 | inactive
VAT1L (vesicle amine transport 1 like) | SID160746574 | 0.404 | inactive
VAT1L (vesicle amine transport 1 like) | SID160746575 | 0.501 | inactive
VAT1L (vesicle amine transport 1 like) | SID160746576 | -0.983 | inactive
